Assay results as given in patent US10526646B2, “Chromogenic peroxidase substrates” (Dako Denmark A/S, priority 2015, dated 2020).
Some entries share one result that the patent states for a list of compounds. Some compounds share one range, which may span the group rather than tell each member.

Experiment: UV-VIS absorbance maxima of chromogenic conjugates and mixtures
Format: physicochemical
Method: “Spectrally narrow” refers to a chromogen having less that 50 nm broadness at its maximum absorbance at half peak height by UV-VIS spectroscopy, measured in +99% water at pH, 6-8 in 10 μM concentration. A “magenta chromogen” is a spectrally narrow chromogen with peak absorbance between 525 and 530 nm, measured in +99% water at pH, 6.0-8.0 in 10 μM concentration. A “greenish-yellow chromogen” is a chromogen with peak absorbance below 475 nm and less than 10% absorbance at 530 nm or above relative to the peak absorbance, measured in +99% water at pH, 6.0-8.0 in 10 μM concentration. A “yellow chromogen” is a chromogen with peak absorbance below 505 nm and less than 10% absorbance at 530 nm or above relative to the peak absorbance, measured in +99% water at pH, 6.0-8.0 in 10 μM concentration. A “cyan chromogen” is a chromogen having maximal absorbance above 615 nm and less than 10% relative absorbance at any wavelength between 530 and 400 nm relative to the peak absorbance, measured in +99% water at pH, 6.0-8.0 m 10 μM concentration. An “orange chromogen” is a “spectrally narrow” chromogen that has maximum absorbance between 495 and 520 nm, measured in +99% water at pH, 6-8 in 10 μM concentration. A “dichroic chromogen” is a chromogen that has at least two absorbance maxima, separated by a local minimum at least 50 nm wide and one further global minimum between 390 and 700 nm measured in water between pH 6 and 8.

| SMILES | Absp nm (max) |
| --- | --- |
| CC/N=c1\cc2oc3cc(NCC)c(C)cc3c(-c3ccccc3C(=O)OCC(=O)NCCOCCOCCNC(=O)/C=C/c3ccc(O)cc3)c-2cc1C [Compound 2, Rhodamine 6G-L12-Cou] | 531-533 nm |
| CC/N=c1\cc2oc3cc(NCC)c(C)cc3c(-c3ccccc3C(=O)OCC(=O)NCCNC(=O)/C=C/c3ccc(O)cc3)c-2cc1C [Compound 13, Rho6G-L6-Cou] | 531-533 nm |
| CC/N=c1\cc2oc3cc(NCC)c(C)cc3c(-c3ccccc3C(=O)OCCN3CCN(CC(=O)NCCOCCOCCNC(=O)/C=C/c4ccc(O)cc4)CC3)c-2cc1C [Compound 14, Rhodamine 6G-Et-Pip-L12-Cou] | 531-533 nm |
| CC/N=c1\cc2oc3cc(NCC)c(C)cc3c(-c3ccccc3C(=O)OCC(=O)NCCOCCOCCNC(=O)COCC(=O)NCCOCCOCCNC(=O)/C=C/c3ccc(O)cc3)c-2cc1C [Compound 15, Rho6G-L27-Cou] | 531-533 nm |
